Source: PubChem BioAssay AID504791 (Drosophila RNAi Screening Center, 2011)
The screen tested about 23,000 reagents; this is a random part of those that have a named target and a result. In the full data, 199 (0.86%) got an active call. 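Plate-scaled ratios behind the calls are not deposited; printed light signals are raw; many rows marked increased or decreased are still called inactive.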 Reagents against one gene are numbered here. Not given: the direction of the score.

- Assay: 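Genes whose knock-down strengthens or weakens small-RNA reporter silencing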 (primary screen)
- System: Drosophila S2-derived reporter cells
- Reagents: long dsRNA against Drosophila genes, about 150-250 ng dsRNA per well (siRNA assay); about 80-120 ng (miRNA assay)
- Duration: about 5 days (siRNA assay); about 4 days (miRNA assay)
- Conditions: copper sulfate induction of reporters: 25 µM (siRNA assay); 200 mM stated (miRNA assay), 1-2 days before reading
- Detection: 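Per-well ratio of Renilla over firefly light, expressed relative to that plate's average ratio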
- Units: stable assay Renilla, run 1 in luminescence; stable assay firefly, run 1 in luminescence
- Hit rule: 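First-pass picks had plate-scaled ratios over 1.5 for the siRNA assay, over 1.6 for the miRNA assay, or under 0.6; two distinct dsRNAs had to score alike on retest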

CG11999 — stable assay Renilla, run 1: 7306; stable assay firefly, run 1: 4.04e5; activity call: inactive
Taf9 (TBP-associated factor 9) — stable assay Renilla, run 1: 7695; stable assay firefly, run 1: 5.71e5; activity call: inactive
CG15480 — stable assay Renilla, run 1: 6778; stable assay firefly, run 1: 3.29e5; activity call: inactive
CG42780 — stable assay Renilla, run 1: 5472; stable assay firefly, run 1: 4.57e5; activity call: inactive
CG1273 — stable assay Renilla, run 1: 6702; stable assay firefly, run 1: 4.10e5; activity call: inactive
CG1792 — stable assay Renilla, run 1: 7135; stable assay firefly, run 1: 4.65e5; activity call: inactive
sls (sallimus) #1 — stable assay Renilla, run 1: 8423; stable assay firefly, run 1: 2.96e5; activity call: inactive
sls (sallimus) #2 — stable assay Renilla, run 1: 5988; stable assay firefly, run 1: 4.36e5; activity call: inactive
sls (sallimus) #3 — stable assay Renilla, run 1: 5982; stable assay firefly, run 1: 3.70e5; activity call: inactive
CG15873 — stable assay Renilla, run 1: 6771; stable assay firefly, run 1: 4.41e5; activity call: inactive
CG14478 — stable assay Renilla, run 1: 7002; stable assay firefly, run 1: 2.98e5; activity call: inactive
Mal-A7 (Maltase A7) — stable assay Renilla, run 1: 7018; stable assay firefly, run 1: 4.17e5; activity call: inactive
tok (tolkin) — stable assay Renilla, run 1: 11711; stable assay firefly, run 1: 4.79e5; activity call: inactive
Npc1b (Niemann-Pick type C-1b) — stable assay Renilla, run 1: 5703; stable assay firefly, run 1: 2.81e5; activity call: inactive
dup (double parked) — stable assay Renilla, run 1: 5115; stable assay firefly, run 1: 3.66e5; activity call: inactive
CG12213 #1 — stable assay Renilla, run 1: 4870; stable assay firefly, run 1: 3.69e5; activity call: inactive
CG12213 #2 — stable assay Renilla, run 1: 8462; stable assay firefly, run 1: 5.74e5; activity call: inactive
arr (arrow) — stable assay Renilla, run 1: 6094; stable assay firefly, run 1: 2.94e5; activity call: inactive
botv — stable assay Renilla, run 1: 12351; stable assay firefly, run 1: 4.97e5; activity call: inactive

2 neighbouring records already listed, for reference:
Mal-A7 (Maltase A7) — stable assay Renilla, run 1: 7018; stable assay firefly, run 1: 4.17e5; activity call: inactive
tok (tolkin) — stable assay Renilla, run 1: 11711; stable assay firefly, run 1: 4.79e5; activity call: inactive
